From patent US20240252463A1, “METHODS OF TREATING FIBROTIC PATHOLOGIES” (Mayo Foundation for Medical Education and Research, priority 2018, published 2024)

Legend:
YAP/TAZ = YAP/TAZ nuclear localization (immunofluorescence, automated imaging) in IPF patient-derived lung fibroblasts; assay type: cell-based, human; details: 10 μM, treated 2 hours prior to fixation
Method: FIGS. 27A, 27C, 27E Dopamine Receptor D1 agonism blocks YAP/TAZ nuclear localization. 27A. D1 receptor selective agonists inhibit YAP/TAZ nuclear localization. IPF patient-derived lung fibroblasts cells treated 2 hours prior to fixation with diverse dopaminergic agonists (10 μM). N=4 different patient samples. % nuclear localization of YAP/TAZ was determined using automated imaging software. Scale bar represents 100 μm. 27C. cAMP measured in IPF patient-derived fibroblasts treated for 20 minutes with DHX. N=3. 27E. […] N=3 (****p<0.0001 vs. 0.1% DMSO vehicle control).
(§1) ImmunofluorescenceMicroscopy: Cells were plated into 96 well plates (Corning 3603) in their specific growth media and allowed to attach (8 hours). Media was then exchanged for the indicated conditions for each experiment. Cells were fixed in 3.7% formalin (Sigma-Aldrich), permeabilized in 0.25% Triton X-100 (Sigma-Aldrich) and then blocked with 1% BSA for 1 h. Cells or tissue sections were incubated overnight with mouse monoclonal antibody against αSMA (Sigma-Aldrich F3777), and/or a rabbit monoclonal antibody against YAP/TAZ (Cell Signaling D24E4) diluted 1:200 in PBS with 1% BSA. Cells were then washed and exposed to flourescence-conjugated secondary antibodies (Invitrogen) diluted 1:1000 and DAPI (Thermo Fisher Scientific). Images were taken with a Cytation5 (BioTek) microscope. For scoring αSMA positive cells (FIG. 3b), an observer blinded to the treatment conditions counted αSMA-positive cells using a visual threshold for bright fibrous staining; a minimum of 200 cells was counted for each condition. YAP/TAZ localization was quantified (FIG. 2, 6, 8) using Gen5 (Biotek) software. Images were taken at 4× magnification of both DAPI and YAP/TAZ staining. Objects were identified using the DAPI channel and a subpopulation of YAP/TAZ nuclear positive cells was counted based on nuclei where the average pixel intensity of the YAP/TAZ channel was greater than 85% of the average pixel intensity of all the nuclei in the control treated cells. Quantification of double positive (YAP/TAZ and αSMA) cells from lung tissue sections (FIG. 4d) was performed similarly; however separate thresholds were established for both YAP/TAZ and αSMA. A minimum of 4000 cells was quantified for each mouse.

αSMA = αSMA intensity (fibroblast activation) in IPF patient-derived lung fibroblasts + TGFβ; assay type: cell-based, human; details: 1 μM + TGFβ, treated for 72 hours
Method: FIGS. 28A-28E DHX reverses fibroblast matrix deposition, contraction and stiffening. 28A. […] N=3 (****p<0.0001, ***p<0.001, **p<0.01 vs. 0.1% DMSO vehicle control) 28D. DHX and YAP/TAZ siRNA modulate matrix crosslinking and degradation gene programs. IPF fibroblasts treated 24 hours with 2 ng/mL TGFβ+/−10 μM DHX or YAP and TAZ siRNA (>90% knockdown). N=3. Heat map indicates % change relative to unstimulated controls. 28E. DHX reverses extracellular matrix stiffening. IPF patient derived fibroblasts and their cell-derived matrices were characterized by AFM microindentation using a spherical tip after 72 hours, then treated +/−10 μM DHX in matrix deposition media for additional 72 hours and re-characterized. N=5 different patient samples. (*p<0.05 vs. 0.1% DMSO vehicle control).
as §1

**Q.** How did the “Nuclear localization (% of total cells) IPF-1” value (YAP/TAZ; patient sample IPF-1) turn out when CCCN1CCC[C@@H]2Cc3n[nH]cc3C[C@H]21.Cl [(−)-Quinpirole•HCl, (−)-Quinpirole] was run?
**A.** 80.12 % of total cells

**Q.** What about the “Nuclear localization (% of total cells) IPF-2” value (YAP/TAZ; patient sample IPF-2) of the same molecule?
**A.** 73.15 % of total cells

**Q.** And the “Nuclear localization (% of total cells) IPF-3” value (YAP/TAZ; patient sample IPF-3)?
**A.** 80.54 % of total cells

**Q.** And the “Nuclear localization (% of total cells) IPF-4” value (YAP/TAZ; patient sample IPF-4)?
**A.** 68.54 % of total cells

**Q.** What about the “αSMA intensity (% of DMSO control) IPF-1” value (αSMA; patient sample IPF-1) of the same molecule?
**A.** 84.61 % of DMSO control

**Q.** And the “αSMA intensity (% of DMSO control) IPF-2” value (αSMA; patient sample IPF-2)?
**A.** 67.1295 % of DMSO control

**Q.** What about the “αSMA intensity (% of DMSO control) IPF-3” value (αSMA; patient sample IPF-3) of the same molecule?
**A.** 85.41 % of DMSO control

**Q.** What about the “αSMA intensity (% of DMSO control) IPF-4” value (αSMA; patient sample IPF-4) of the same molecule?
**A.** 95.1307 % of DMSO control
